Literature values, collected in US5565437A, “2',3'-dideoxy-2'-fluoro-purine nucleosides and methods for using same” (priority 1992, dated 1996).
For at least one compound, name, drawing or mass did not settle the structure.

Tests used:
[1] = system: AIDS; conditions: background statement; cited from earlier work
[2] = system: human immunodeficiency virus (HIV); conditions: background statement; cited from earlier work

Nc1ccn([C@H]2CC[C@@H](CO)O2)c(=O)n1 [ddC, dideoxycytidine]
in vivo effect in treating patients with AIDS [1]: effective in vivo in treating patients with AIDS
in vitro activity against HIV [2]: potent in vitro activity
